Structures can show the parent of a compound that is named as a salt. Where two headings read alike, the source gives them in different places. The campaign covered roughly 3,300 compounds. About 95 (3%) showed an effect of 50% or more. The list shows a part of the results. Peptide text beside a SMILES is read from it.
Tested on: HCoV-229E
Set-up: species or system Huh-7; HTS, protection from HCoV-229E induced cell death, luminescent cell viability (CellCounting-Lite 2.0), inhibition rate
Conditions: 24 h post infection, 1 h compound pre-incubation, 10 µM, inhibitor

SMILES	229E Inhibition rate	229E Inhibition rate (229E Inhibition rate, 24 h)
CC(C)(O)[C@@H]1CC[C@](C)([C@H]2[C@@H](O)C[C@@]3(C)[C@@H]4C[C@H](O[C@@H]5O[C@H](CO)[C@@H](O)[C@H](O)[C@H]5O)[C@H]5C(C)(C)[C@@H](O[C@@H]6OC[C@@H](O)[C@H](O)[C@H]6O)CC[C@@]56C[C@@]46CC[C@]23C)O1 [Astragaloside IV]	7.4%	–
CC(=O)NCCCCCC(=O)O [6-Acetamidohexanoic acid]	10.9%	–
O=C(O)CNC(=O)[C@@H]1CCCN1 [L-Prolylglycine] (H-Pro-Gly-OH)	8.2%	–
O=C(CO)[C@@H](O[C@H]1O[C@H](CO)[C@@H](O)[C@H](O)[C@H]1O)[C@H](O)[C@H](O)CO [Turanose]	9%	–
CC(C)=CCO [3-Methyl-2-buten-1-ol]	18.9%	–
C[C@]12CCC(=O)C=C1CC[C@@H]1[C@@H]2[C@@H](O)C[C@]2(C=O)[C@@H](C(=O)CO)CC[C@@H]12 [Aldosterone]	45.1%	–
c1coc(CNc2ncnc3[nH]cnc23)c1 [Kinetin]	43%	–
COC(=O)c1ccc(O)c(OC)c1 [Methyl vanillate]	0%	–
Cc1c(O)cc2c(c1C)O[C@](C)(CCC[C@H](C)CCC[C@H](C)CCCC(C)C)CC2 [γ-Tocopherol]	8.2%	–
NC(Cc1ccc(O)c(O)c1)C(=O)O (racemic) [DL-Dopa]	19.1%	–
COc1ccc2cc3[n+](cc2c1OC)CCc1cc2c(cc1-3)OCO2 [Berberine (sulfate)]	–	20.5%
COc1cc(C[C@H]2COC(=O)[C@@H]2Cc2ccc(O)c(OC)c2)ccc1O [Matairesinol]	26.8%	–
COc1cc2c(=O)c(-c3ccc(O)cc3)coc2cc1O[C@@H]1O[C@H](COC(C)=O)[C@@H](O)[C@H](O)[C@H]1O [6''-O-Acetylglycitin]	0%	–
C=Cc1ccc(O)c(OC)c1 [2-Methoxy-4-vinylphenol]	10.2%	–
CC(C)=CCC[C@](C)(O[C@@H]1O[C@H](CO[C@@H]2O[C@@H](CO)[C@H](O)[C@H]2O)[C@@H](O)[C@H](O)[C@H]1O)[C@H]1CC[C@]2(C)[C@@H]1[C@H](O)C[C@@H]1[C@@]3(C)CC[C@H](O[C@@H]4O[C@H](CO)[C@@H](O)[C@H](O)[C@H]4O)C(C)(C)[C@@H]3CC[C@]12C [Notoginsenoside Fe]	12.2%	–
CCCCCCCCCCCCCCCC(=O)O [Palmitic acid]	22%	–
C/C(=C\C(=O)OCCCCCCCCC(=O)O)C[C@@H]1OC[C@H](C[C@@H]2O[C@H]2[C@@H](C)[C@H](C)O)[C@@H](O)[C@H]1O [Mupirocin]	43.8%	–
CC(=O)N[C@H]1[C@H](O[C@@H]([C@H](O)[C@H](C=O)NC(C)=O)[C@H](O)CO)O[C@H](CO)[C@@H](O[C@@H]2O[C@H](CO)[C@@H](O)[C@H](O)[C@H]2NC(C)=O)[C@@H]1O [N,N',N''-Triacetylchitotriose]	8%	–
CN1CCc2cc3c(cc2C1O)OCO3 (stereo not drawn) [Hydrastinine (hydrochloride)]	–	11.1%
COc1c(O)cc2oc(-c3ccccc3)cc(=O)c2c1O [Oroxylin A]	8%	–

Random excerpt: 3 records from the list
SMILES	229E Inhibition rate	229E Inhibition rate (229E Inhibition rate, 24 h)
CC(C)(O)[C@@H]1CC[C@](C)([C@H]2[C@@H](O)C[C@@]3(C)[C@@H]4C[C@H](O[C@@H]5O[C@H](CO)[C@@H](O)[C@H](O)[C@H]5O)[C@H]5C(C)(C)[C@@H](O[C@@H]6OC[C@@H](O)[C@H](O)[C@H]6O)CC[C@@]56C[C@@]46CC[C@]23C)O1 [Astragaloside IV]	7.4%	–
c1coc(CNc2ncnc3[nH]cnc23)c1 [Kinetin]	43%	–
O=C(O)CNC(=O)[C@@H]1CCCN1 [L-Prolylglycine] (H-Pro-Gly-OH)	8.2%	–

Remaining list, next part.

SMILES	229E Inhibition rate	229E Inhibition rate (229E Inhibition rate, 24 h)
C/C=C/C=C/C=C\CC/C=C/C(=O)NCC(C)(C)O [Hydroxy-α-sanshool]	19.7%	–
C[C@@H]1O[C@@H](OC[C@H]2O[C@@H](OCCc3ccc(O)c(O)c3)[C@H](O)[C@@H](OC(=O)/C=C/c3ccc(O)c(O)c3)[C@@H]2O)[C@H](O)[C@H](O)[C@H]1O [Isoforsythiaside]	–	3.4%
COc1cc2c(c(OC)c1OC)-c1c(cc3c(c1OC)OCO3)C[C@H](C)[C@H](C)C2 [Schisandrin B]	–	56.2%
C[C@H](CC[C@@H](O[C@@H]1O[C@H](CO[C@@H]2O[C@H](CO)[C@@H](O)[C@H](O)[C@H]2O)[C@@H](O)[C@H](O)[C@H]1O[C@@H]1O[C@H](CO)[C@@H](O)[C@H](O)[C@H]1O)C(C)(C)O)[C@H]1CC[C@@]2(C)[C@@H]3CC=C4[C@@H](CC[C@H](O[C@@H]5O[C@H](CO)[C@@H](O[C@@H]6O[C@H](CO)[C@@H](O)[C@H](O)[C@H]6O)[C@H](O)[C@H]5O)C4(C)C)[C@]3(C)[C@H](O)C[C@]12C [Isomogroside V]	20.2%	–
C[C@@H]1[C@H]2[C@H](O[C@@H]3O[C@H](CO)[C@@H](O)[C@H](O)[C@H]3O)OC=C(C(=O)O)[C@H]2C[C@@H]1O [Loganic acid]	15.6%	–
c1cc2c(cc1[C@H]1OC[C@@H]3[C@H]1CO[C@H]3c1ccc3c(c1)OCO3)OCO2 [(-)-Asarinin]	9.2%	–
Oc1cc(O)c2c(c1)O[C@@]1(c3ccc(O)c(O)c3)Oc3cc(O)c4c(c3[C@@H]2[C@H]1O)O[C@H](c1ccc(O)c(O)c1)[C@H](O)C4 [Procyanidin A2]	11.8%	–
CCCCCCCC/C=C/CCCCCCCC(=O)O [Elaidic acid]	15%	–
CC(C)(CC(=O)O)CC(=O)O [3,3-Dimethylglutaric acid]	5.4%	–
COc1ccc(C(C)=O)cc1O [3-Hydroxy-4-methoxyacetophenone]	50.5%	–
Cn1cnc(CCN)c1 [1-Methylhistamine (dihydrochloride)]	11.2%	–
OC[C@H]1O[C@@H](Oc2c[nH]c3ccccc23)[C@H](O)[C@@H](O)[C@@H]1O [Indican]	16.8%	–
CC=CC(=O)C1=C(C)CCCC1(C)C [β-Damascone]	27.1%	–
C[C@H]1O[C@@H](n2cnc3c(N)ncnc32)[C@H](O)[C@@H]1O [5'-Deoxyadenosine]	24.8%	–
CCCCCCCC(O)CC(=O)O (stereo not drawn) [3-Hydroxycapric acid]	14.4%	–
C=C[C@H]1CN2CC[C@H]1C[C@@H]2[C@@H](O)c1ccnc2ccccc12 [Cinchonine]	53.6%	–
COC1=CC(=O)c2ccccc2C1=O [Lawsone methyl ether]	15.9%	–
O=[N+]([O-])c1ccc(O)c(O)c1 [4-Nitrocatechol]	4.6%	–
COc1cc(O)cc2c1C(=O)C[C@@H](c1ccccc1)O2 [Alpinetin]	10.1%	–
O=C(O)C1CCCCN1 (stereo not drawn) [Pipecolic acid]	19.9%	–

SMILES	229E Inhibition rate	229E Inhibition rate (229E Inhibition rate, 24 h)
CNC(=S)NC [N,N'-Dimethylthiourea]	6.9%	–
NC(=O)CC[C@H](N)C(=O)O [L-Glutamine]	10.3%	–
CCCCCCCCCCCCC(=O)OC [Methyl tridecanoate]	30.8%	–
O=C1CCNC(=O)N1 [Dihydrouracil]	0%	–
CCCCCCCC/C=C\CCCCCCCC(=O)OCC [Ethyl oleate]	36.8%	–
COc1ccccc1/C=C/C(=O)O [2-Methoxycinnamic acid]	7.5%	–
NC(Cc1c[nH]c2ccccc12)C(=O)O (racemic) [DL-Tryptophan]	15.7%	–
CC(C)=CC[C@@H](OC(=O)C(C)C)C1=CC(=O)c2c(O)ccc(O)c2C1=O [Isobutylshikonin]	10.3%	–
COc1c(O)cc2oc(-c3ccc(O)c(O)c3)cc(=O)c2c1O [Nepetin]	40.3%	–
C[C@H]1[C@H](C)CC[C@]2(C(=O)O[C@@H]3O[C@H](CO[C@@H]4O[C@H](CO)[C@@H](O[C@@H]5O[C@H](C)[C@H](O)[C@@H](O)[C@H]5O)[C@H](O)[C@H]4O)[C@@H](O)[C@H](O)[C@H]3O)CC[C@]3(C)C(=CC[C@@H]4[C@@]5(C)C[C@@H](O)[C@H](O)[C@@](C)(CO)[C@@H]5CC[C@]43C)[C@H]12 [Asiaticoside]	8.4%	–
C=C1CC/C=C(\C)CC[C@@H]2[C@@H]1CC2(C)C [β-Caryophyllene]	27.2%	–
CCCCCCCCCC[C@H](C(=O)O)[C@]1(C(=O)O)CCC(=O)O1 [Spiculisporic acid]	11.6%	–
CC(C)CCC[C@@H](C)[C@H]1CC[C@H]2C3=CC=C4C[C@@H](O)CC[C@]4(C)[C@H]3CC[C@]12C [7-Dehydrocholesterol]	15.2%	–
O=C(O)CNCC(=O)O [Iminodiacetic acid]	6.4%	–
Nc1ccccc1C(=O)C[C@H](N)C(=O)O [L-Kynurenine]	–	40.2%
CC(C)(O[C@@H]1O[C@H](CO)[C@@H](O)[C@H](O)[C@H]1O)[C@@H]1CC[C@](C)([C@H]2[C@@H](O)C[C@@]3(C)[C@@H]4C[C@H](O)[C@H]5C(C)(C)[C@@H](O[C@@H]6OC[C@@H](O)[C@H](O)[C@H]6O)CC[C@@]56C[C@@]46CC[C@]23C)O1 [Isoastragaloside IV]	11.5%	–
C[C@@H]1O[C@@H](O[C@@H]2C(=O)c3c(O)cc(O)cc3O[C@H]2c2cc(O)cc(O)c2)[C@H](O)[C@H](O)[C@H]1O [Neosmitilbin]	11.7%	–
C[C@@H]1C(=O)O[C@H]2C[C@]34[C@@H]5OC(=O)[C@]3(O[C@@H]3OC(=O)[C@H](O)[C@@]34[C@H](C(C)(C)C)[C@H]5O)[C@]21O [Ginkgolide J]	0%	–
O=C(O)C1=CO[C@@H](O[C@@H]2O[C@H](CO)[C@@H](O)[C@H](O)[C@H]2O)[C@@H]2C(CO)=C[C@H](O)[C@H]12 [Deacetylasperulosidic Acid]	20.1%	–
Cc1cc(O)cc(O[C@@H]2O[C@H](CO)[C@@H](O)[C@H](O)[C@H]2O)c1 [Orcinol glucoside]	0%	–

From PMC12431657, “Discovery and mechanistic insights of dibenzoylmethane as a broad spectrum inhibitor of coronavirus” (PLOS Pathogens, 2025)
